Measured values as given in patent US20100137267A1, “FORMULATIONS FOR TREATMENT OF ADIPOSE TISSUE, CUTANEOUS TISSUE AND DISORDERS, AND MUSCULAR TISSUE” (priority 2006, published 2010).

Legend:
epididymal fat pad = assay: In vivo lipolysis assay: epididymal fat pad mass after injection into the fat pad; parameters: species or system Sprague Dawley rats
[1] = system: cultured human adipocytes; assay: In vitro lipolysis assay (glycerol release) in cultured adipocytes; assay type: cell-based; conditions: three hour incubation
Experimental: In the in vitro lipolysis assay, glycerol was detected in cell culture media via a spectrophotometric measurement after chemical oxidation with hydrogen peroxide. Glycerol was measured over a three hour time period. Levels of lipolysis in cultured human adipocytes were tested after exposure to a beta adrenergic agonist alone, a glucocorticosteroid alone, or the combination of the two for one or more preincubation periods as described in more detail below.
Human subcutaneous adipocytes were used in the lipolysis assay. Adipose tissue was harvested from liposuction or lipectomy and pre-adipocytes were isolated as follows. Briefly, fat tissue was minced and incubated at 37° C. in Krebs-Ringer bicarbonate buffer containing 1% bovine serum albumin and 0.1% collagenase in an oxygen-rich shaking chamber (5% CO2; 75 strokes/min) for 1 hour. The suspension was filtered through a 400 μm nylon mesh and centrifuged for 1 min at 100 g. The pre-adipocytes in the supernatant were washed twice with and then plated in 96 well plates at a density of cells/well. The pre-adipocytes were cultured in maintenance medium for seven days as they differentiated into adipocytes.
At −21 hours before the lipolysis assay, medium was removed from each well and replaced with 75 μl of Maintenance Medium containing appropriate drug or DMSO (vehicle) concentrations (see Experimental Design section below). Each test drug or control treatment was applied to 8 wells/group (12 treatment groups per 96-well plate). […]
The glycerol content of the Assay Buffer from each well following the incubation was used as an index for lipolysis, where an increase in glycerol indicated lipolysis. Glycerol levels were assayed colorimetrically via a commercial glycerol assay kit (Randox Laboratory, United Kingdom) and quantified by comparison to a glycerol serial dilution standard curve (3 μM-200 μM). […]

What does the source list for `COc1ccc(C[C@@H](C)NC[C@H](O)c2ccc(O)c(NC=O)c2)cc1` (racemic) [Formoterol, ±N-[2-hydroxy-5-[1-hydroxy-2-[1-(4-methoxyphenyl)propan-2-ylamino]ethyl]phenyl]methanamide]?
average epididymal fat loss relative to vehicle-injected control group (epididymal fat pad; formoterol 0.1 μg alone or with methylprednisolone 100 μg, right epididymal fat pad injected once per day for three days): essentially no fat loss; Fat Pad Weight Δ (drug-vehicle), individual animals (epididymal fat pad; three daily injections, Formoterol 1.39 μg, or Formoterol 1.39 μg + Budesonide 4 μg, contralateral pad vehicle (2% PEG), harvested 24 h after the final injection): -0.036 g; induction of lipolysis in cultured adipocytes (figure legend) [1]: dose-dependent induction of lipolysis; lipolysis compared with Isoproterenol (positive control) ([1]; Isoproterenol 10^−6 M, formoterol statement holds for concentrations of 10^−6 M and above): greater than that observed for isoproterenol; increase in lipolysis ([1]; relative to negative control (0.1% DMSO), Isoproterenol 10^−6 M positive control): greater than six fold
